# Test results reported in publication PMC7674491.
# Sequences of proteins named here, by UniProt entry; tags and fusion partners are left off. A change or cut given only in a name is not applied to a line headed by its entry.
# UniProt P67775: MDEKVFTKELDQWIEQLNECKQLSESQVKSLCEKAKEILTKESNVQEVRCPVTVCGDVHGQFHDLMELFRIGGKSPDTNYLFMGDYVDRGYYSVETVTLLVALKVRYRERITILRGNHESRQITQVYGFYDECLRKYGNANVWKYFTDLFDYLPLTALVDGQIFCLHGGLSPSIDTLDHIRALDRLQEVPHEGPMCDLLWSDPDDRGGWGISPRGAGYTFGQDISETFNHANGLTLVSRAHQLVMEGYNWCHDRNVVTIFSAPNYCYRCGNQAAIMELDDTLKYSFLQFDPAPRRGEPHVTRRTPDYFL
# Tests used:
# C-FLAG-PPP2R2B = biological target: T1, C-FLAG-PPP2R2B (UniProt Q00005); test: co-IP; ANTI-FLAG M2 affinity gel on lysates of SKBR3 cells stably expressing FLAG fusion PPP2R2B (cells treated with 10 µg/ml trastuzumab for 6 h); phosphatase assay buffer (20 mM imidazole-HCl, 2 mM EDTA, 2 mM EGTA, 1 mM Na3VO4, 0.1% NP-40, pH 7.0), 4 °C, 3 h, four washes; western blot
# T1 sequence: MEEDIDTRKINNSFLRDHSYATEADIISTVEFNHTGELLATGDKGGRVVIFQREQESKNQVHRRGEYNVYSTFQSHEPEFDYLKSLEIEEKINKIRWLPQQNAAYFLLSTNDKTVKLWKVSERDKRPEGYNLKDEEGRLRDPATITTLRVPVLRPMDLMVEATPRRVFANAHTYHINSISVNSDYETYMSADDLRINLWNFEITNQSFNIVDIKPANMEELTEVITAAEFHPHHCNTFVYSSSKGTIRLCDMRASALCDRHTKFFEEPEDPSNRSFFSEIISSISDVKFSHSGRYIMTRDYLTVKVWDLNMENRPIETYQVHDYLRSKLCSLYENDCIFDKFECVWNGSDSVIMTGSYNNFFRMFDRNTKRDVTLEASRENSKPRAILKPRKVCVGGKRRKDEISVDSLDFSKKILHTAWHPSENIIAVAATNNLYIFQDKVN
# N-FLAG-PPP2R2B = biological target: T2, N-FLAG-PPP2R2B (UniProt Q00005); test: as above
# T2 sequence: T1 sequence
binding (C-FLAG-PPP2R2B),binding (N-FLAG-PPP2R2B),Substance
binds,binds,PP2A scaffolding A subunit (human (endogenous in SKBR3))
binds,binds,PP2A catalytic C subunit (from UniProt P67775)

# These are yes or no findings as the source states them, for the method shown. In cells and extracts the contact can be indirect. Binding can be weak; no strength is given. Sequences can lack the tags named with a protein.
